# Laboratory results reported in the supplement of paper PMC8728848.
# The other results are listed elsewhere or left out.
# B1: Protein L(B1-B4) (Finegoldia magna), Q51912 (protein)
# chain: KEETPETPETDSEEEVTIKANLIFANGSTQTAEFKGTFEKATSEAYAYADTLKKDNGEYTVDVADKGYTLNIKFAGKEKTPEEPKEEVTIKANLIYADGKTQTAEFKGTFEEATAEAYRYADALKKDNGEYTVDVADKGYTLNIKFAGKEKTPEEPKEEVTIKANLIYADGKTQTAEFKGTFEEATAEAYRYADLLAKENGKYTVDVADKGYTLNIKFAGKEKTPEEPKEEVTIKANLIYADGKTQTAEFKGTFAEATAEAYRYADLLAKENGKYTADLEDGGYTINIRFAG
# How the values were obtained:
# Assay in all cases: glycan array binding signal (z-score within array); higher = stronger binding
# Details in all cases: glycan notation: IUPAC condensed, linker removed
# [1] = molecular target: Gal(b1-4)GlcNAc(b1-2)Man(a1-6)[Man(a1-3)]Man(b1-4)GlcNAc(b1-4)GlcNAc
# Summary of the method: (§1)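 From the Consortium for Functional Glycomics database, 3228 arrays were curated, keeping only those whose protein sequence was available. Binding is given as a within-array Z-score averaged across arrays sharing a protein sequence and across linkers. Negative Z-scores can be read as non-binding.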
# [2] = molecular target: Gal(b1-4)GlcNAc(b1-2)[Gal(b1-4)GlcNAc(b1-4)]Man(a1-3)[Gal(b1-4)GlcNAc(b1-2)Man(a1-6)]Man(b1-4)GlcNAc(b1-4)GlcNAc
# Summary of the method: as §1
# [3] = molecular target: Gal(b1-4)GlcNAc(b1-2)[Gal(b1-4)GlcNAc(b1-4)]Man(a1-3)[Gal(b1-4)GlcNAc(b1-2)[Gal(b1-4)GlcNAc(b1-6)]Man(a1-6)]Man(b1-4)GlcNAc(b1-4)GlcNAc
# Summary of the method: as §1
# [4] = molecular target: Gal(b1-4)GlcNAc(b1-2)[Gal(b1-4)GlcNAc(b1-4)]Man(a1-3)[GlcNAc(b1-4)][Gal(b1-4)GlcNAc(b1-2)Man(a1-6)]Man(b1-4)GlcNAc(b1-4)GlcNAc
# Summary of the method: as §1
# [5] = molecular target: Gal(b1-4)GlcNAc(b1-2)[Gal(b1-4)GlcNAc(b1-4)]Man(a1-3)[GlcNAc(b1-4)][Gal(b1-4)GlcNAc(b1-2)[Gal(b1-4)GlcNAc(b1-6)]Man(a1-6)]Man(b1-4)GlcNAc(b1-4)GlcNAc
# Summary of the method: as §1
# [6] = molecular target: Gal(b1-4)GlcNAc(b1-2)[Gal(b1-4)GlcNAc(b1-6)]Man(a1-6)[Gal(b1-4)GlcNAc(b1-2)Man(a1-3)]Man(b1-4)GlcNAc(b1-4)GlcNAc
# Summary of the method: as §1
# [7] = molecular target: Gal(b1-4)GlcNAc(b1-2)[Gal(b1-4)GlcNAc(b1-6)]Man(a1-6)[Gal(b1-4)GlcNAc(b1-2)Man(a1-3)]Man(b1-4)GlcNAc(b1-4)[Fuc(a1-6)]GlcNAc
# Summary of the method: as §1
# [8] = molecular target: Gal(b1-4)GlcNAc(b1-2)[Gal(b1-4)GlcNAc(b1-6)]Man(a1-6)[GlcNAc(b1-4)][Gal(b1-4)GlcNAc(b1-2)Man(a1-3)]Man(b1-4)GlcNAc(b1-4)GlcNAc
# Summary of the method: as §1
# [9] = molecular target: Gal(b1-4)GlcNAc(b1-2)[Gal(b1-4)GlcNAc(b1-6)]Man(a1-6)[GlcNAc(b1-4)][Gal(b1-4)GlcNAc(b1-2)[Gal(b1-4)GlcNAc(b1-4)]Man(a1-3)]Man(b1-4)GlcNAc(b1-4)[Fuc(a1-6)]GlcNAc
# Summary of the method: as §1
# [10] = molecular target: Gal(b1-4)GlcNAc(b1-3)Gal(b1-3)GalNAc
# Summary of the method: as §1
# [11] = molecular target: Gal(b1-4)GlcNAc(b1-3)Gal(b1-3)GlcNAc
# Summary of the method: as §1
# [12] = molecular target: Gal(b1-4)GlcNAc(b1-3)Gal(b1-4)Glc
# Summary of the method: as §1
# [13] = molecular target: Gal(b1-4)GlcNAc(b1-3)Gal(b1-4)GlcNAc
# Summary of the method: as §1
# [14] = molecular target: Gal(b1-4)GlcNAc(b1-3)Gal(b1-4)GlcNAc(b1-2)Man(a1-3)[Gal(b1-4)GlcNAc(b1-3)Gal(b1-4)GlcNAc(b1-2)Man(a1-6)]Man(b1-4)GlcNAc(b1-4)GlcNAc
# Summary of the method: as §1
# [15] = molecular target: Gal(b1-4)GlcNAc(b1-3)Gal(b1-4)GlcNAc(b1-2)Man(a1-3)[Gal(b1-4)GlcNAc(b1-3)Gal(b1-4)GlcNAc(b1-2)Man(a1-6)]Man(b1-4)GlcNAc(b1-4)[Fuc(a1-6)]GlcNAc
# Summary of the method: as §1
# [16] = molecular target: Gal(b1-4)GlcNAc(b1-3)Gal(b1-4)GlcNAc(b1-2)[Gal(b1-4)GlcNAc(b1-3)Gal(b1-4)GlcNAc(b1-6)]Man(a1-6)[Gal(b1-4)GlcNAc(b1-3)Gal(b1-4)GlcNAc(b1-2)Man(a1-3)]Man(b1-4)GlcNAc(b1-4)GlcNAc
# Summary of the method: as §1
# [17] = molecular target: Gal(b1-4)GlcNAc(b1-3)Gal(b1-4)GlcNAc(b1-2)[Gal(b1-4)GlcNAc(b1-3)Gal(b1-4)GlcNAc(b1-6)]Man(a1-6)[Gal(b1-4)GlcNAc(b1-3)Gal(b1-4)GlcNAc(b1-2)Man(a1-3)]Man(b1-4)GlcNAc(b1-4)[Fuc(a1-6)]GlcNAc
# Summary of the method: as §1
# [18] = molecular target: Gal(b1-4)GlcNAc(b1-3)Gal(b1-4)GlcNAc(b1-3)Gal(b1-4)GlcNAc
# Summary of the method: as §1
# [19] = molecular target: Gal(b1-4)GlcNAc(b1-3)Gal(b1-4)GlcNAc(b1-3)Gal(b1-4)GlcNAc(b1-2)Man(a1-3)[Gal(b1-4)GlcNAc(b1-3)Gal(b1-4)GlcNAc(b1-3)Gal(b1-4)GlcNAc(b1-2)Man(a1-6)]Man(b1-4)GlcNAc(b1-4)GlcNAc
# Summary of the method: as §1
# [20] = molecular target: Gal(b1-4)GlcNAc(b1-3)Gal(b1-4)GlcNAc(b1-3)Gal(b1-4)GlcNAc(b1-2)Man(a1-3)[Gal(b1-4)GlcNAc(b1-3)Gal(b1-4)GlcNAc(b1-3)Gal(b1-4)GlcNAc(b1-2)Man(a1-6)]Man(b1-4)GlcNAc(b1-4)[Fuc(a1-6)]GlcNAc
# Summary of the method: as §1
# [21] = molecular target: Gal(b1-4)GlcNAc(b1-3)Gal(b1-4)GlcNAc(b1-3)Gal(b1-4)GlcNAc(b1-2)[Gal(b1-4)GlcNAc(b1-3)Gal(b1-4)GlcNAc(b1-3)Gal(b1-4)GlcNAc(b1-6)]Man(a1-6)[Gal(b1-4)GlcNAc(b1-3)Gal(b1-4)GlcNAc(b1-3)Gal(b1-4)GlcNAc(b1-2)Man(a1-3)]Man(b1-4)GlcNAc(b1-4)[Fuc(a1-6)]GlcNAc
# Summary of the method: as §1
# [22] = molecular target: Gal(b1-4)GlcNAc(b1-3)Gal(b1-4)GlcNAc(b1-3)Gal(b1-4)GlcNAc(b1-3)Gal(b1-4)GlcNAc(b1-2)Man(a1-3)[Gal(b1-4)GlcNAc(b1-3)Gal(b1-4)GlcNAc(b1-3)Gal(b1-4)GlcNAc(b1-3)Gal(b1-4)GlcNAc(b1-2)Man(a1-6)]Man(b1-4)GlcNAc(b1-4)GlcNAc
# Summary of the method: as §1
binder,measurement,setting,value
B1,glycan array binding signal (z-score),[1],-0.385
same,glycan array binding signal (z-score),[2],-1.05
same,glycan array binding signal (z-score),[3],-0.799
same,glycan array binding signal (z-score),[4],-0.821
same,glycan array binding signal (z-score),[5],0.468
same,glycan array binding signal (z-score),[6],0.436
same,glycan array binding signal (z-score),[7],2.92
same,glycan array binding signal (z-score),[8],-0.11
same,glycan array binding signal (z-score),[9],0.045
same,glycan array binding signal (z-score),[10],-0.508
same,glycan array binding signal (z-score),[11],-0.573
same,glycan array binding signal (z-score),[12],-0.694
same,glycan array binding signal (z-score),[13],-0.75
same,glycan array binding signal (z-score),[14],2.2
same,glycan array binding signal (z-score),[15],0.486
same,glycan array binding signal (z-score),[16],1.11
same,glycan array binding signal (z-score),[17],2.08
same,glycan array binding signal (z-score),[18],-0.725
same,glycan array binding signal (z-score),[19],2.12
same,glycan array binding signal (z-score),[20],2.27
same,glycan array binding signal (z-score),[21],2.1
same,glycan array binding signal (z-score),[22],2.06

# Part of the list above, bar-delimited.
binder | measurement | setting | value
B1 | glycan array binding signal (z-score) | [6] | 0.436
same | glycan array binding signal (z-score) | [7] | 2.92
